This passage reports binding results from article PMC6731690.

Amino acid sequences for entries named in this document (tags omitted). Residues count along the entry.
UniProt P37023, residues 22-118: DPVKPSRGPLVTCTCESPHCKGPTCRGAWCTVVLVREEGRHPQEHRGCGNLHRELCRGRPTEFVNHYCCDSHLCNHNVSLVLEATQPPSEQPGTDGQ

Experiment [1] addresses T1, BMP9 growth factor domain (BMP9-GFD) (UniProt Q9UK05).
T1 sequence: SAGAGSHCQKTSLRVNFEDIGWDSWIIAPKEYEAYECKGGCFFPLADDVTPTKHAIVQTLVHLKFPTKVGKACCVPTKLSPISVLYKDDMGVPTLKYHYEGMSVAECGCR
The experiment in a line: native gel or EMSA; purified proteins premixed, incubated at room temperature for 10 min, 10% native PAGE; bands excised and rerun on 12% nonreducing SDS/PAGE; both purified.

For experiment [2], the target named is T1, BMP9 growth factor domain (BMP9-GFD). In words: SEC; analytical gel filtration, S75 10/30, 50 mM Tris.HCl, pH 7.4, 150 mM NaCl; sENG (mixture of dimer and monomer), ALK1 ECD and pro-BMP9 alone or in combination; fractions TCA-precipitated and run on 12% nonreducing SDS/PAGE; both purified. (SEC sorts molecules by how far they enter the pores of the column.)

Experiment [3] deals with T2, dimeric recombinant soluble endoglin, sENG(D) (human) (UniProt P17813).
T2 sequence: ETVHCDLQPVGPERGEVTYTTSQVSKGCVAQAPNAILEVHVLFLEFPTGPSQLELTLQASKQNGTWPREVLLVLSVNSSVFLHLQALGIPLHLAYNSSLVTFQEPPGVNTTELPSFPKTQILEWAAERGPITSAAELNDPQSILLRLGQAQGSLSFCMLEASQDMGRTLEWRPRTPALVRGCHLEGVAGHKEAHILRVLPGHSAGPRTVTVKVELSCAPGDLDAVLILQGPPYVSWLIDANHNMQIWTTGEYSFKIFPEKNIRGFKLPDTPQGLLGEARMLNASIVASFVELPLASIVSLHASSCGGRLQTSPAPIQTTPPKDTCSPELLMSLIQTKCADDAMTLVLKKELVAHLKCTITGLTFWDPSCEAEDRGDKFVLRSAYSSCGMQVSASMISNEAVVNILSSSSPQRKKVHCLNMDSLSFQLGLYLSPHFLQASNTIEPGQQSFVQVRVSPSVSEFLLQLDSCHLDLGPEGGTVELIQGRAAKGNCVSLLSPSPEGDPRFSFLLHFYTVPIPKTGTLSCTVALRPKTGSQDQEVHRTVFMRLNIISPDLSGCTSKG
The experiment is described as above.

Experiment [4] addresses T3, monomeric recombinant soluble endoglin, sENG(M) (human) (UniProt P17813).
T3 sequence: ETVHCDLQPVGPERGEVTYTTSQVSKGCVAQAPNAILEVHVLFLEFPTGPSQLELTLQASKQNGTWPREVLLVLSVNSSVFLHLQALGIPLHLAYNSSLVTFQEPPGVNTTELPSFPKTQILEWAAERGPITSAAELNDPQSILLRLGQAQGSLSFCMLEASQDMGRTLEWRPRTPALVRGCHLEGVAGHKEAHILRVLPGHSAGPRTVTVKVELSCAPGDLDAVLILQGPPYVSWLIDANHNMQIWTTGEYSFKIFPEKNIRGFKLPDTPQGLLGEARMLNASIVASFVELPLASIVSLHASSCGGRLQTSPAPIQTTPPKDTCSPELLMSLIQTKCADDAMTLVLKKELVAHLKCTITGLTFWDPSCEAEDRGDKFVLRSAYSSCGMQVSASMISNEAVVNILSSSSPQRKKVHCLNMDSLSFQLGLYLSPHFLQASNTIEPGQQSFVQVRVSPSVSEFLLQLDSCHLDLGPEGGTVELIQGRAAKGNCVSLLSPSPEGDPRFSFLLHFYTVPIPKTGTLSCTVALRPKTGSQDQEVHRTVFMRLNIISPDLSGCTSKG
The experiment is described as above.

For experiment [5], the target named is T4, recombinant soluble endoglin (sENG), full-length ECD of human ENG residues 1 to 586 with C-terminal His-tag, mixture of dimer and monomer or form not told (human) (UniProt P17813).
T4 sequence: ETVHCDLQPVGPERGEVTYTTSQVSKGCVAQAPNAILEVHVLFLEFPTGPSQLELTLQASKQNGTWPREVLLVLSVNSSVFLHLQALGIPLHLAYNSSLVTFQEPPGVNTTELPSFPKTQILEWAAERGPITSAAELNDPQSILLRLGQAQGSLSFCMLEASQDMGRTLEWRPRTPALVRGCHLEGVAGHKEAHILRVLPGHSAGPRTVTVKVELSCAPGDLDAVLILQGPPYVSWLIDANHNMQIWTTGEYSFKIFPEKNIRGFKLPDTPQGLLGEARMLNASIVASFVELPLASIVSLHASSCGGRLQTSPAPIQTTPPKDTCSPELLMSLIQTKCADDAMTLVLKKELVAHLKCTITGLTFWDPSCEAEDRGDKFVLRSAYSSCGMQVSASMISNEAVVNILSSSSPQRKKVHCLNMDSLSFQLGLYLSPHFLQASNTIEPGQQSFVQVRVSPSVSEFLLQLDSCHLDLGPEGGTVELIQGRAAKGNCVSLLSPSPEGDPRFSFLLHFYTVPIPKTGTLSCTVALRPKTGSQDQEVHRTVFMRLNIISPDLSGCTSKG
The experiment in a line: native gel or EMSA; purified proteins premixed, incubated at room temperature for 10 min, 10% native PAGE; bands excised and rerun on 12% nonreducing SDS/PAGE; both purified. In general terms: Mobility shift assays separate free from complexed probe on a gel.

The target in experiment [6] is T4, recombinant soluble endoglin (sENG), full-length ECD of human ENG residues 1 to 586 with C-terminal His-tag, mixture of dimer and monomer or form not told (human). In words: pull-down; pro-BMP9 applied to a nickel-chelating (Ni-NTA) column preloaded with His-tagged sENG (D+M); samples on 12% SDS/PAGE, Coomassie Blue; both purified.
Experiment [7] has as its target T2, dimeric recombinant soluble endoglin, sENG(D) (human). The experiment in a line: native gel or EMSA; purified proteins premixed, incubated at room temperature for 10 min, 10% native PAGE; bands excised and rerun on 12% nonreducing SDS/PAGE; both purified.
The target in experiment [8] is T3, monomeric recombinant soluble endoglin, sENG(M) (human). Described as above.
For experiment [9] the target is unchanged. In words: SEC; sENG(M) (1 mg) mixed with pro-BMP9 (10 ug GFD) at room temperature for 30 min; S200 10/30, 20 mM Tris-Cl, pH 7.4, 150 mM NaCl; fractions on nonreducing SDS/PAGE, immunoblotted; both purified.
For experiment [10], the target named is T4, recombinant soluble endoglin (sENG), full-length ECD of human ENG residues 1 to 586 with C-terminal His-tag, mixture of dimer and monomer or form not told (human). The experiment in a line: SEC; analytical gel filtration, S75 10/30, 50 mM Tris.HCl, pH 7.4, 150 mM NaCl; sENG (mixture of dimer and monomer), ALK1 ECD and pro-BMP9 alone or in combination; fractions TCA-precipitated and run on 12% nonreducing SDS/PAGE; both purified.

Experiment [11] concerns the target T5, sENG from human plasma (PE patients and normotensive pregnant women) (human (endogenous in plasma)) (UniProt P17813).
T5 sequence: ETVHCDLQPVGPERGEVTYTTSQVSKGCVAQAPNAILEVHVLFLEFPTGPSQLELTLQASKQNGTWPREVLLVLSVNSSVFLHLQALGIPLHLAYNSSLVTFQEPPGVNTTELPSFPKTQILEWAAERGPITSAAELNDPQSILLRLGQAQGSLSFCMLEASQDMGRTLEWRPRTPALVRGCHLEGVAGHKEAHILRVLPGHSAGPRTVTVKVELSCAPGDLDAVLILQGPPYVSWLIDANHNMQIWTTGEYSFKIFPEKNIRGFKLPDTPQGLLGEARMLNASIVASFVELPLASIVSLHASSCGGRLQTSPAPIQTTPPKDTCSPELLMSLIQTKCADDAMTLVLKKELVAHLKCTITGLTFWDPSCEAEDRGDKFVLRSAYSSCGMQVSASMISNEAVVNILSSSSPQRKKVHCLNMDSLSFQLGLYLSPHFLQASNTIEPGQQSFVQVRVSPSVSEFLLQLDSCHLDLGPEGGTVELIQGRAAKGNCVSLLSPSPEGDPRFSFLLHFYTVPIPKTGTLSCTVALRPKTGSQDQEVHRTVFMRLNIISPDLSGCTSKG
The experiment in a line: ELISA; ELISA specific for the sENG(M):BMP9 complex on plasma samples from 18 PE patients and 11 normotensive controls; antibody pairs in SI Appendix. A general note: An ELISA detects its analyte on a solid surface through an enzyme-linked reagent.

These are yes or no findings as the source states them, for the method shown. Some results given as binding are weak or reduced against the parent protein; the word gives no strength. For part of these data: Sequences can lack the tags named with a protein.

Consider “ALK1 ECD (from UniProt P37023 22-118) (domain or fragment)”, for which the binding result in experiment [1] is recorded as “binds”; in experiment [2], “binds”; in [3], “no binding”; in experiment [4], “no binding”.

B1: BMPRII ECD (domain or fragment, UniProt Q13873 27-150)
chain: SQNQERLCAFKDPYQQDLGIGESRISHENGTILCSKGSTCYGLWEKSKGDINLVKQGCWSHIGDPQECHYEECVVTTTPPSIQNGTYRFCCCSTDLCNVNFTENFPPPDTTPLSPPHSFNRDET
As to B1, in experiment [5], the binding result is “no binding”.

B2: BMP9 growth factor domain (BMP9-GFD) (ligand, UniProt Q9UK05 320-429)
chain: SAGAGSHCQKTSLRVNFEDIGWDSWIIAPKEYEAYECKGGCFFPLADDVTPTKHAIVQTLVHLKFPTKVGKACCVPTKLSPISVLYKDDMGVPTLKYHYEGMSVAECGCR
As for B2, the binding result in experiment [6], in experiment [7], in experiment [8], in experiment [5], in experiment [9] and in experiment [10] was “binds” throughout.

B3: circulating BMP9 in human plasma (protein, UniProt Q9UK05 320-429)
chain: SAGAGSHCQKTSLRVNFEDIGWDSWIIAPKEYEAYECKGGCFFPLADDVTPTKHAIVQTLVHLKFPTKVGKACCVPTKLSPISVLYKDDMGVPTLKYHYEGMSVAECGCR
In the case of B3, the binding result in experiment [11] is “binds”.
